Reference: patent publication US20260206754A1, “HETEROARYL COMPOUNDS FOR THE CONTROL OF INVERTEBRATE PESTS” (priority 2022, published 2026)
Some entries share one result that the patent states for a list of compounds. For at least one compound, name, drawing or mass did not settle the structure.

Tests used:
Format in all cases: in vivo
[1] = system: boll weevil (Anthonomus grandis); assay: B.2 Boll weevil, 96-well microtiter plate diet test with eggs; conditions: 2500 ppm; egg and larval mortality after 5 days
Procedure: (§1) If not otherwise specified, the test solutions were prepared as follow: The active compound was dissolved at the desired concentration in a mixture of 1:1 (vol:vol) distilled water:acetone. The test solution was prepared on the day of use.
B.2 Boll Weevil (Anthonomus grandis)
For evaluating control of boll weevil (Anthonomus grandis) the test unit consisted of 96-well-microtiter plates containing an insect diet and 5-10 A. grandis eggs.
The compounds were formulated using a solution containing 75% v/v water and 25% v/v DMSO. Different concentrations of formulated compounds were sprayed onto the insect diet at 5 μl, using a custom-built micro atomizer, at two replications.
After application, microtiter plates were incubated at about 25±1° C. and about 75±5% relative humidity for 5 days. Egg and larval mortality was then visually assessed.

[2] = system: Southern armyworm (Spodoptera eridania), 2nd instar larvae; assay: B.3 Southern armyworm, 2nd instar larvae, foliar spray on lima bean plants; conditions: 300 ppm; 4 days after treatment
Procedure: B.3 Southern Armyworm (Spodoptera eridania), 2nd Instar Larvae
The active compounds were formulated by a Tecan liquid handler in 100% cyclohexanone as a 10,000-ppm solution supplied in tubes. The 10,000-ppm solution was serially diluted in 100% cyclohexanone to make interim solutions. These served as stock solutions for which final dilutions were made by the Tecan in 50% acetone:50% water (v/v) into 10 or 20 ml glass vials. A non-ionic surfactant (Kinetic@) was included in the solution at a volume of 0.01% (v/v). The vials were then inserted into an automated electrostatic sprayer equipped with an atomizing nozzle for application to plants/insects. Lima bean plants (variety Sieva) were grown 2 plants to a pot and selected for treatment at the 1st true leaf stage. Test solutions were sprayed onto the foliage by an auto-mated electrostatic plant sprayer equipped with an atomizing spray nozzle. The plants were dried in the sprayer fume hood and then removed from the sprayer. Each pot was placed into perforated plastic bags with a zip closure. Ten to 11 armyworm larvae were placed into the bag and the bags zipped closed. Test plants were maintained in a growth room at about 25° C. and about 20-40% relative humidity for 4 days, avoiding direct exposure to fluorescent light (14:10 light:dark photoperiod) to prevent trapping of heat inside the bags. Mortality and reduced feeding were assessed 4 days after treatment, compared to untreated control plants.

[3] = system: Orchid thrips (Dichromothrips corbetti); assay: B.4 Orchid thrips, floral-immersion technique; conditions: 300 ppm; 72 hours after treatment
[4] = system: green peach aphid (Myzus persicae); assay: B.6 Green peach aphid, systemic test with artificial diet under membrane; conditions: 2500 ppm; aphid mortality after 3 days
Procedure: as §1
B.6 Green Peach Aphid (Myzus persicae)
For evaluating control of green peach aphid (Myzus persicae) through systemic means, the test unit consisted of 96-well-microtiter plates containing liquid artificial diet under an artificial membrane.
The compounds were formulated using a solution containing 75% v/v water and 25% v/v DMSO. Different concentrations of formulated compounds were pipetted into the aphid diet, using a custom built pipetter, at two replications.
After application, 5-8 adult aphids were placed on the artificial membrane inside the microtiter plate wells. The aphids were then allowed to suck on the treated aphid diet and incubated at about 23±1° C. and about 50±5% relative humidity for 3 days. Aphid mortality and fecundity was then visually assessed.

[5] = system: tobacco budworm (Heliothis virescens); assay: B.1 Tobacco budworm, 96-well microtiter plate diet test with eggs; conditions: 2500 ppm; egg and larval mortality after 5 days
Procedure: as §1
B.1 Tobacco Budworm (Heliothis virescens)
For evaluating control of tobacco budworm (Heliothis virescens) the test unit consisted of 96-well-microtiter plates containing an insect diet and 15-25 H. virescens eggs.
The compounds were formulated using a solution containing 75% v/v water and 25% v/v DMSO. Different concentrations of formulated compounds were sprayed onto the insect diet at 10 μl, using a custom-built micro atomizer, at two replications.
After application, microtiter plates were incubated at about 28±1° C. and about 80±5% relative humidity for 5 days. Egg and larval mortality was then visually assessed.

[6] = system: yellow fever mosquito (Aedes aegypti); conditions: 2500 ppm; larval mortality after 2 days
Procedure: as §1
B.5 Yellow Fever Mosquito (Aedes aegypti)
For evaluating control of yellow fever mosquito (Aedes aegypti) the test unit consisted of 96-well-microtiter plates containing 200 μl of tap water per well and 5-15 freshly hatched A. aegypti larvae.
The active compounds were formulated using a solution containing 75% (v/v) water and 25% (v/v) DMSO. Different concentrations of formulated compounds or mixtures were sprayed onto the insect diet at 2.5 μl, using a custom-built micro atomizer, at two replications.
After application, microtiter plates were incubated at 281° C., 80±5% RH for 2 days. Larval mortality was then visually assessed.

Measured: mortality in comparison with untreated controls

CC(NC(=O)c1cc(Cl)cc(Cl)c1)c1nccnc1-n1cc(-c2ccccn2)nn1 (stereo not shown) [I-30]
at least 75%: [1] | [2] | [3] | [4]

CC(NC(=O)c1cc(C(F)(F)F)cc(C(F)(F)F)c1)c1nccnc1-n1ncc(-c2ccncc2)n1 (stereo not shown) [I-18]
at least 75%: all assays above

CC(NC(=O)c1cc(Br)cc(C(C)(C)C#N)c1)c1nccnc1-n1cc(S(C)(=O)=O)cn1 (stereo not shown) [I-34]
not listed: [3]
at least 75%: all other assays above

CC(NC(=O)c1cc(C(F)(F)F)cc(C(F)(F)F)c1)c1nccnc1-n1cc(-c2ccncc2)nn1 (stereo not shown) [I-19]
not listed: [4]
at least 75%: all other assays above

CC(NC(=O)c1cc(C#N)cc(OC(F)(F)F)c1)c1nccnc1-n1cc(S(C)(=O)=O)cn1 (stereo not shown) [I-39]
at least 75%: all assays above

CC(NC(=O)c1cc(C(F)(F)F)cc(C(F)(F)F)c1)c1nccnc1-n1ncc(S(C)(=O)=O)n1 (stereo not shown) [I-20, N-[1-[3-(4-methylsulfonyltriazol-2-yl)pyrazin-2-yl]ethyl]-3,5-bis(trifluoromethyl)benzamide]
not listed: [3]
at least 75%: all other assays above

CC(NC(=O)c1cc(C(F)(F)F)cc(C(F)(F)F)c1)c1nccnc1-n1ncc(-c2ncco2)n1 (stereo not shown) [I-24, N-[1-[3-(4-oxazol-2-yltriazol-2-yl)pyrazin-2-yl]ethyl]-3,5-bis(trifluoromethyl)benzamide]
not listed: [5]
at least 75%: all other assays above

CC(NC(=O)c1cc(Cl)nc(C2(C#N)CC2)c1)c1nccnc1-n1cc(S(C)(=O)=O)cn1 (stereo not shown) [I-35]
not listed: [3]
at least 75%: all other assays above

CC(NC(=O)c1cc(Cl)cc(C(F)(F)F)c1)c1ncccc1-n1nccn1 (stereo not shown) [I-1]
not listed: [4]
at least 75%: all other assays above

CC(NC(=O)c1cc(C(F)(F)F)cc(C(F)(F)F)c1)c1nccnc1-n1cc(-c2ccccn2)cn1 (stereo not shown) [I-46]
not listed: [3]
at least 75%: all other assays above

CC(NC(=O)c1cc(Cl)cc(Cl)c1)c1nccnc1-n1cc(S(C)(=O)=O)cn1 (stereo not shown) [I-31]
not listed: [3]
at least 75%: all other assays above

CCSc1cnn(-c2nccnc2C(C)NC(=O)c2cc(C(F)(F)F)cc(C(F)(F)F)c2)c1 (stereo not shown) [I-61]
not listed: [3]
at least 75%: all other assays above

CC(NC(=O)c1cc(Cl)cc(OC(F)(F)F)c1)c1nccnc1-n1cc(S(C)(=O)=O)cn1 (stereo not shown) [I-38]
not listed: [3]
at least 75%: all other assays above

CC(NC(=O)c1cc(C(F)(F)F)cc(C(F)(F)F)c1)c1nccnc1-n1cc(-c2cnccn2)cn1 (stereo not shown) [I-44]
not listed: [3]
at least 75%: all other assays above

CC(c1nccnc1-n1ncc(-c2cccnc2)n1)N(CC1CC1)C(=O)c1cc(C(F)(F)F)cc(C(F)(F)F)c1 (stereo not shown) [I-12, N-(cyclopropylmethyl)-N-[1-[3-[4-(3-pyridyl)triazol-2-yl]pyrazin-2-yl]ethyl]-3,5-bis(trifluoromethyl)benzamide]
not listed: [5]
at least 75%: all other assays above

CC(NC(=O)c1cc(OC(F)F)cc(C2(C#N)CC2)c1)c1nccnc1-n1cc(S(C)(=O)=O)cn1 (stereo not shown) [I-36]
not listed: [3]
at least 75%: all other assays above

CCS(=O)(=O)c1cnn(-c2nccnc2C(C)NC(=O)c2cc(C(F)(F)F)cc(C(F)(F)F)c2)c1 (stereo not shown) [I-56]
not listed: [3]
at least 75%: all other assays above

CC(NC(=O)c1cc(C(F)(F)F)cc(C(F)(F)F)c1)c1nccc(Cl)c1-n1ncc(-c2ccccn2)n1 (stereo not shown) [I-57, N-[1-[4-chloro-3-[4-(2-pyridyl)triazol-2-yl]-2-pyridyl]ethyl]-3,5-bis(tri-fluoromethyl)benzamide]
not listed: [3]
at least 75%: all other assays above
